Common to all, as to assay: co-IP; human RPTC lysates incubated with normal rabbit IgG, anti-SNX19, anti-caveolin-1 or anti-flotillin-1 antibodies; SDS-PAGE and immunoblotting; both orientations; cells in the basal state or treated with fenoldopam (25 nM, 30 min) and/or SCH39166 (1 µM, 30 min)
Experiment [1] concerns the target T1, Sorting nexin 19 (SNX19) (human (endogenous in human RPTCs)) (UniProt Q92543).
T1 sequence: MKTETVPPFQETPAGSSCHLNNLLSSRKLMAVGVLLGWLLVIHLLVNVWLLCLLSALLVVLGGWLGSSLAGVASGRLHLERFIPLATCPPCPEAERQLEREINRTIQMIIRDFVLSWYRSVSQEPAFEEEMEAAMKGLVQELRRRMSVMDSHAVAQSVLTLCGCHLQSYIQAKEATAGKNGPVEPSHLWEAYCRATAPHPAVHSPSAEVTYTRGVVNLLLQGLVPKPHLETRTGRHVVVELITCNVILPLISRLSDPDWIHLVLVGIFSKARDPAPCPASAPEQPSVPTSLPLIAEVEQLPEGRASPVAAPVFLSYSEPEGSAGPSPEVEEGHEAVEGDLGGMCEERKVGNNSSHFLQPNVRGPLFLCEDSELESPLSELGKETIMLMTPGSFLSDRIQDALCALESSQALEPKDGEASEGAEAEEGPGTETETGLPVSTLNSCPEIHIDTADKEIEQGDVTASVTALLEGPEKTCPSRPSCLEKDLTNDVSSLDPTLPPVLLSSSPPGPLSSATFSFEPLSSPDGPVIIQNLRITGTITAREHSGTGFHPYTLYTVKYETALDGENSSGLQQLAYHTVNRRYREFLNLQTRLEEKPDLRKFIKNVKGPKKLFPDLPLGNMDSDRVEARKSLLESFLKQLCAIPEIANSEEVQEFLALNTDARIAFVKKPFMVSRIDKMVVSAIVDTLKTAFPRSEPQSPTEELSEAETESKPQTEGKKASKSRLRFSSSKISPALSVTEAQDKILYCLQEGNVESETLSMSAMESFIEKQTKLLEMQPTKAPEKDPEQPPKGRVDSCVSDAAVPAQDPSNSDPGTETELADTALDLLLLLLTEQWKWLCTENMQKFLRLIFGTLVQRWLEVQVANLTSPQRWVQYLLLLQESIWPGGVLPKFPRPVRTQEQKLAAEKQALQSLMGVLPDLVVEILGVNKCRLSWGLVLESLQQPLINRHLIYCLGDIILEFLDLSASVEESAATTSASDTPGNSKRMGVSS

Protein sequences, listed by entry. Tags and fused reporters are not part of them.
UniProt Q03135: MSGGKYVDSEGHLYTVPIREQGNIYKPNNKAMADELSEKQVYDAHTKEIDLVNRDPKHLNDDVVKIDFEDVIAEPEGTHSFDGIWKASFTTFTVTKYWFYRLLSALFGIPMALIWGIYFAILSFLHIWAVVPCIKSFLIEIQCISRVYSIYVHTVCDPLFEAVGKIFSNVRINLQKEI

In experiment [2] the target is Caveolin-1 (human (endogenous in human RPTCs)) (UniProt Q03135).
The target of experiment [3] is T2, Flotillin-1 (human (endogenous in human RPTCs)) (UniProt O75955).
T2 sequence: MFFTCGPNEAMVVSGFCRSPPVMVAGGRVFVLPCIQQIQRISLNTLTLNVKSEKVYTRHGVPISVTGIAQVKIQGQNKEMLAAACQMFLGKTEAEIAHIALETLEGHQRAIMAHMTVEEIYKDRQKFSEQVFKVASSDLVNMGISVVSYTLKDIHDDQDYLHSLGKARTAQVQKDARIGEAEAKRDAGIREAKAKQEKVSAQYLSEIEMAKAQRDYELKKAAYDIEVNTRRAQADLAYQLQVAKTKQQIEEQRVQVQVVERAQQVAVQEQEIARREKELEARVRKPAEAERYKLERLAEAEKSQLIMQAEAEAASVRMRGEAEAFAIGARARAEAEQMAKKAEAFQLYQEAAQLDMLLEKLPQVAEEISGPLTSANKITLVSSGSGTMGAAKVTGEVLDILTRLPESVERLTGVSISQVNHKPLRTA

The values that follow come from article PMC11853350.

These are yes or no findings as the source states them, for the method shown. In cells and extracts the contact can be indirect. Some entries that bind do so weakly or less than the wild type.

On to Caveolin-1 (from UniProt Q03135 1-178), for which the binding entry in experiment [1] is recorded as “binds”.

B1: Sorting nexin 19 (SNX19) (protein, UniProt Q92543-1 1-992)
chain: MKTETVPPFQETPAGSSCHLNNLLSSRKLMAVGVLLGWLLVIHLLVNVWLLCLLSALLVVLGGWLGSSLAGVASGRLHLERFIPLATCPPCPEAERQLEREINRTIQMIIRDFVLSWYRSVSQEPAFEEEMEAAMKGLVQELRRRMSVMDSHAVAQSVLTLCGCHLQSYIQAKEATAGKNGPVEPSHLWEAYCRATAPHPAVHSPSAEVTYTRGVVNLLLQGLVPKPHLETRTGRHVVVELITCNVILPLISRLSDPDWIHLVLVGIFSKARDPAPCPASAPEQPSVPTSLPLIAEVEQLPEGRASPVAAPVFLSYSEPEGSAGPSPEVEEGHEAVEGDLGGMCEERKVGNNSSHFLQPNVRGPLFLCEDSELESPLSELGKETIMLMTPGSFLSDRIQDALCALESSQALEPKDGEASEGAEAEEGPGTETETGLPVSTLNSCPEIHIDTADKEIEQGDVTASVTALLEGPEKTCPSRPSCLEKDLTNDVSSLDPTLPPVLLSSSPPGPLSSATFSFEPLSSPDGPVIIQNLRITGTITAREHSGTGFHPYTLYTVKYETALDGENSSGLQQLAYHTVNRRYREFLNLQTRLEEKPDLRKFIKNVKGPKKLFPDLPLGNMDSDRVEARKSLLESFLKQLCAIPEIANSEEVQEFLALNTDARIAFVKKPFMVSRIDKMVVSAIVDTLKTAFPRSEPQSPTEELSEAETESKPQTEGKKASKSRLRFSSSKISPALSVTEAQDKILYCLQEGNVESETLSMSAMESFIEKQTKLLEMQPTKAPEKDPEQPPKGRVDSCVSDAAVPAQDPSNSDPGTETELADTALDLLLLLLTEQWKWLCTENMQKFLRLIFGTLVQRWLEVQVANLTSPQRWVQYLLLLQESIWPGGVLPKFPRPVRTQEQKLAAEKQALQSLMGVLPDLVVEILGVNKCRLSWGLVLESLQQPLINRHLIYCLGDIILEFLDLSASVEESAATTSASDTPGNSKRMGVSS
For the molecule B1, the binding entry in experiment [2] and in experiment [3] was “binds” each time.

B2: Flotillin-1 (protein, UniProt O75955 1-427)
chain: MFFTCGPNEAMVVSGFCRSPPVMVAGGRVFVLPCIQQIQRISLNTLTLNVKSEKVYTRHGVPISVTGIAQVKIQGQNKEMLAAACQMFLGKTEAEIAHIALETLEGHQRAIMAHMTVEEIYKDRQKFSEQVFKVASSDLVNMGISVVSYTLKDIHDDQDYLHSLGKARTAQVQKDARIGEAEAKRDAGIREAKAKQEKVSAQYLSEIEMAKAQRDYELKKAAYDIEVNTRRAQADLAYQLQVAKTKQQIEEQRVQVQVVERAQQVAVQEQEIARREKELEARVRKPAEAERYKLERLAEAEKSQLIMQAEAEAASVRMRGEAEAFAIGARARAEAEQMAKKAEAFQLYQEAAQLDMLLEKLPQVAEEISGPLTSANKITLVSSGSGTMGAAKVTGEVLDILTRLPESVERLTGVSISQVNHKPLRTA
Take B2: the binding entry in experiment [1] was “binds”.
